“And” between values parts separate entries of the source, which are not always exact repeats. Equal entries are not always repeated. Hit rate of the full screen: of about 390,000 compounds, about 4,000 (1%) were called active. The shares of active, inactive and inconclusive entries below differ from those in the screen. Calls follow the shape of the dose curve; as a rule, active = well fitted inhibition curve with a large enough effect; inconclusive = small, poorly fitted or top-dose-only effect, or another doubt; inactive = no such curve, though single readings can be large or run the other way. Where the call is inconclusive, the potency comes from a doubtful curve fit. Residues, ends and D or L forms follow the SMILES beside them. *: point of attachment. Cbz = O=C(OCc1ccccc1)*
The compounds below were run against DNA polymerase iota (Homo sapiens) (UniProt Q9UNA4) (assay: qHTS for Inhibitors of Polymerase Iota). Settings: Pol iota fluorescent replication assay, 10 min; series mostly up to 115 µM.
Procedure, shortened: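 Fluorescent replication assay read twice, at 0 min and 10 min after adding 50 nM (final) substrate. Enzyme (10 nM) and compounds were first incubated 15 min at room temperature; enzyme-free buffer wells were negative controls.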
Potency is read from the fitted curve at half-maximal effect.

Sequences of proteins named here, by UniProt entry; tags and fusion partners are left off. A change or cut given only in a name is not applied to a line headed by its entry.
UniProt Q9UNA4: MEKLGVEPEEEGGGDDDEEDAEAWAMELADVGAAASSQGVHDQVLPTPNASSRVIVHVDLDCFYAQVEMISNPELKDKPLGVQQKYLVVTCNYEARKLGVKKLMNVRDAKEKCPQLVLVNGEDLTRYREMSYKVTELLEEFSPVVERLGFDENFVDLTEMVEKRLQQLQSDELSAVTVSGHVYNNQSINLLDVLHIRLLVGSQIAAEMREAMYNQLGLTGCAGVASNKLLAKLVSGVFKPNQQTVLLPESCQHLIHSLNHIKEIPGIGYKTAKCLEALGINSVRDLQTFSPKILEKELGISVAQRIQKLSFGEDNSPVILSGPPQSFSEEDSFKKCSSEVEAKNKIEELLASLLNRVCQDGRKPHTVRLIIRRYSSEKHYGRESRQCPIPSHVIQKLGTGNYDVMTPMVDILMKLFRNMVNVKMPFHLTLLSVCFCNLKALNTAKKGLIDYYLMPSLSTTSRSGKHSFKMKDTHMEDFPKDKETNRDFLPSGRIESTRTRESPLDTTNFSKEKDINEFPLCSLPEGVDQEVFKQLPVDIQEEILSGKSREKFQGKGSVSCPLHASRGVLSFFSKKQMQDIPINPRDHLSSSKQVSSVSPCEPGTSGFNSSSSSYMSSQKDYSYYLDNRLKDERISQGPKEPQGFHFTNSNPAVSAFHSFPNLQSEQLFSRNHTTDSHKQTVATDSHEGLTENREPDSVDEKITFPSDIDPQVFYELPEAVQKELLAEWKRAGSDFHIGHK

SMILES	Potency
CS(=O)(=O)c1ccc(C(=O)OCc2nnc(-c3ccc(Cl)cc3)o2)cc1[N+](=O)[O-]	inconclusive: 17.8 µM [inhibitor, partial curve, poor fit]
Cc1ccc(C(CC(=O)NCc2ccco2)c2ccc(OC(C)C)cc2)cc1 (centres undefined)	inconclusive: 35.5 µM [inhibitor, single point]
Cc1ccc(C(=O)N2CCN(c3ccc(NC(=O)c4ccc(Br)o4)cc3)CC2)cc1	inconclusive: 35.5 µM [inhibitor, full curve, poor fit]
CCCCNC(=O)CCCn1c(=O)c2ccccc2n(Cc2cccc(Cl)c2)c1=O	inactive
Cc1ccnc(S(=O)(=O)Cc2ccc([N+](=O)[O-])cc2)n1	inconclusive: 35.5 µM [inhibitor, single point]
CSc1nnc(-c2sc(-c3ccccc3)nc2C)n1C	inconclusive: 100 µM [inhibitor, single point]
N#C/C(=C\c1cccc(Cl)c1)c1n[nH]c(Cn2cncn2)n1	inconclusive: 39.8 µM [inhibitor, single point]
O=C(NC1CCCCC1)C(c1ccc(F)cc1)N(Cc1ccco1)C(=O)Cn1nnc2ccccc21 (centres undefined)	inconclusive: 89.1 µM [inhibitor, single point]
CCC(=O)c1ccc(OCC(O)Cn2nc(C)c(Br)c2C)cc1 (centres undefined)	inactive
CC(=O)Nc1ccc(C23CC4CC(CC(C4)C2)C3)cc1	inconclusive: 35.5 µM [inhibitor, single point]
CCCCS(=O)(=O)Nc1ccc(C)cn1	inconclusive: 25.1 µM [inhibitor, partial curve]
Cc1cccc(NS(=O)(=O)c2nnc(NC(=O)c3ccccc3F)s2)c1	inconclusive: 8.91 µM [inhibitor, partial curve, poor fit]
CCCSc1nnc2nc3c(nn12)c1ccccc1n3C	inconclusive: 89.1 µM [inhibitor, partial curve, poor fit]
O=C1/C(=C/c2ccncc2)SC(=S)N1C1CCS(=O)(=O)C1 (centres undefined)	inconclusive: 4.47 µM [inhibitor, full curve, poor fit]
CCN(CC)C(=O)c1sc2nc(Cc3ccccc3)[nH]c(=O)c2c1C	inconclusive: 100 µM [inhibitor, partial curve, poor fit]
CCNc1nc(NCC)n2c(SCC(=O)Nc3ccc(OC)c(OC)c3)nnc2n1	inactive
CCN1/C(=C/C=C/C=C/C=C/c2sc3ccccc3[n+]2CC)Sc2ccccc21	inconclusive: 89.1 µM [inhibitor, single point]
O=C(Cc1cccc(C(F)(F)F)c1)Nc1ccccc1	inactive
Cc1ccc(-n2nc(CO)c(C(=O)NCc3cccnc3)n2)cc1	inactive
O=C(Nc1ccc(S(=O)(=O)N2CCCCC2)cc1)c1ccc(=O)[nH]c1	inconclusive: 44.7 µM [inhibitor, partial curve, poor fit]
O=C(O)c1cccc(N2C(=O)CSC2=S)c1	inconclusive: 15.8 µM [inhibitor, partial curve, poor fit]
Cc1cc(C2CC(=O)Nc3ccccc3S2)c(C)s1 (centres undefined)	inconclusive: 89.1 µM [inhibitor, single point]

SMILES	Potency
Cc1ccc2c(cnn2C(=O)CCC(=O)NCc2cccc(Br)c2)c1	inactive
COc1ccc(OC)c(CNC(=O)C2CCN(c3nc4ccccc4nc3C(F)(F)F)CC2)c1	inactive
CCS(=O)(=O)N1CCC(C(=O)NCCc2ccc(OC)c(OC)c2)CC1	inconclusive: 79.4 µM [inhibitor, single point]
CCCCCSc1nc2sc3c(c2c(=O)n1-c1ccc(OC)cc1)CCN(C(C)=O)C3	inconclusive: 25.1 µM [inhibitor, partial curve, poor fit]
CN(CC(=O)Nc1cccc(Cl)c1)S(=O)(=O)c1ccc2c(c1)n(C)c(=O)c(=O)n2C	inconclusive: 25.1 µM [inhibitor, full curve, poor fit]
O=C(O)CCC(NC(=O)C1CCCN1C(=O)OCc1ccccc1)C(=O)O (stereo not drawn) (Cbz-Pro-Glu-OH; configuration not given here)	inconclusive: 89.1 µM [inhibitor, single point]
Cc1cc(C)nc(NS(=O)(=O)c2ccc(Br)cc2)n1	inactive
CN(C)c1cccc(C(=O)N/N=C/c2ccoc2)c1	inconclusive: 31.6 µM [inhibitor, single point]
CC(C)C[C@@H](CNCC(=O)[C@H](CC(C)C)NC(=O)c1[nH]cnc1C(=O)N[C@H](CN)CC(C)C)NC(=O)c1nc[nH]c1C(=O)N[C@@H](Cc1ccccc1)C(=O)O	inconclusive: 31.6 µM [inhibitor, partial curve, poor fit]
CC(C)Cn1c(-c2ccc(Br)cc2)c[nH]c1=S	inconclusive: 35.5 µM [inhibitor, single point]
O=C(O)CSc1c2c(nc3cc(C(=O)N4CCOCC4)ccc13)CCCC2	inconclusive: 28.2 µM [inhibitor, partial curve]
CCOC(=O)c1nnn(-c2nonc2-n2cccc2)c1CCl	inconclusive: 31.6 µM [inhibitor, single point]
O=C(C=Cc1ccco1)c1ccc2ccccc2c1	inconclusive: 56.2 µM [inhibitor, partial curve, poor fit]
COc1cccc(N2C(=NC(=O)C3CCCO3)SC3CS(=O)(=O)CC32)c1 (centres undefined)	inactive
COc1ccccc1C(CNC(=O)CCNS(=O)(=O)c1ccc(Br)cc1)N1CCCC1 (centres undefined)	inconclusive: 89.1 µM [inhibitor, single point]
Cc1ccc2sc(N3CCN(CCNC(=O)c4ccco4)CC3)nc2c1C	inactive
COc1ccc(C(=O)CC(=O)O)c2c1C=CC(C)(C)O2	inactive
O=C(CSc1nc(O)cc(=O)[nH]1)N1c2ccccc2CCc2ccccc21	inconclusive: 35.5 µM [inhibitor, single point]
Cc1noc(/C=C/c2ccco2)c1S(=O)(=O)N1CCC(C(=O)NCc2ccco2)CC1	inconclusive: 31.6 µM [inhibitor, full curve]
C/C(=N/NC(=O)C1CC1(c1ccccc1)c1ccccc1)c1cccs1 (centres undefined)	inconclusive: 89.1 µM [inhibitor, single point]
COC(=O)Nc1ccc2c(c1)N(C(=O)CCN1CCN3CCCC3C1)c1ccccc1CC2 (centres undefined)	inconclusive: 31.6 µM [inhibitor, single point]
CCCCOC(=O)c1ccc(NC(=O)COC(=O)c2ccc3ncsc3c2)cc1	inconclusive: 20 µM [inhibitor, partial curve]

SMILES	Potency
COc1ccc(-c2nn3c(=O)c(C)nnc3s2)cc1	inconclusive: 79.4 µM [inhibitor, single point]
O=C(NCCc1nc2ccccc2[nH]1)c1ccc(Cl)c([N+](=O)[O-])c1	inconclusive: 112 µM [inhibitor, single point]
O=[N+]([O-])c1cc2oc3c(c2c(C=NCc2ccccc2)c1O)CCCC3	inactive
Cc1c(/C=N/Nc2ccc(F)cc2)c(O)n(C)c(=O)c1C#N	inconclusive: 39.8 µM [inhibitor, partial curve, poor fit]
COc1ccc2c(c1)Cc1sc(NC(=O)c3cccc(C)c3)nc1-2	active: 8.91 µM
Cc1nnc(NCc2n[nH]c(=O)c3ccccc23)c2ccccc12	inconclusive: 89.1 µM [inhibitor, single point]
CCc1ccccc1NC1=NCC(=O)N1Cc1ccc2c(c1)OCO2	inconclusive: 35.5 µM [inhibitor, single point]
OCCN1CCOCCN(CCO)CCN(CCO)CC1	inconclusive: 100 µM [inhibitor, single point]
COc1cc(CC2C(=O)Nc3ccccc32)cc(C)c1O (centres undefined)	inactive
Cc1cc2c(c(=O)n1Cc1cccnc1)C(c1cccs1)C(C#N)=C(N)O2 (centres undefined)	inconclusive: 25.1 µM [inhibitor, full curve, poor fit]
CCOC(=O)C(c1ccccc1)C(Nc1ccc(F)cc1)c1ccccn1 (centres undefined)	inconclusive: 39.8 µM [inhibitor, partial curve, poor fit]
CCOC(=O)N1CCC(N(CCN(C)C)C(=S)Nc2cc(C)ccc2C)CC1	inconclusive: 89.1 µM [inhibitor, partial curve, poor fit]
CCOC(=O)CN1N=C(/C=C/c2ccc(C(C)C)cc2)CCC1=O	inactive
CC(=O)c1ccccc1NS(=O)(=O)c1ccc2c(c1)CC(=O)N2	inactive
CC(C)c1nn2c(=O)cc(COC(=O)c3cccc(NC(=O)c4cccs4)c3)nc2s1	inactive
CCCn1c(SCC(=O)Nc2ccccc2N2CCCCC2)nc2c1c(=O)n(C)c(=O)n2C	inconclusive: 70.8 µM [inhibitor, partial curve, poor fit]
O=C1CCC/C(=N\NC(=O)c2ccc(COc3cccc4cccnc34)cc2)C1	inconclusive: 56.2 µM [inhibitor, partial curve]
COCCNC(=O)c1c[nH]c2ccc(S(=O)(=O)Nc3ccc(F)cc3F)cc2c1=O	inconclusive: 89.1 µM [inhibitor, single point] and inconclusive: 50.1 µM [inhibitor, partial curve]
O=[N+]([O-])c1cc(-c2ccc(/C=N/c3nc4ccccn4c3-c3ccco3)o2)ccc1Cl	inconclusive: 20 µM [inhibitor, partial curve, poor fit]
CCOC(=O)C1=C(C)N=c2s/c(=C\c3cccc(OCC(=O)O)c3)c(=O)n2C1c1ccccc1 (centres undefined)	inconclusive: 20 µM [inhibitor, partial curve, poor fit]

Shown bar-delimited: entries from further up
SMILES | Potency
O=C(CSc1nc(O)cc(=O)[nH]1)N1c2ccccc2CCc2ccccc21 | inconclusive: 35.5 µM [inhibitor, single point]
Cc1noc(/C=C/c2ccco2)c1S(=O)(=O)N1CCC(C(=O)NCc2ccco2)CC1 | inconclusive: 31.6 µM [inhibitor, full curve]
C/C(=N/NC(=O)C1CC1(c1ccccc1)c1ccccc1)c1cccs1 (centres undefined) | inconclusive: 89.1 µM [inhibitor, single point]
COC(=O)Nc1ccc2c(c1)N(C(=O)CCN1CCN3CCCC3C1)c1ccccc1CC2 (centres undefined) | inconclusive: 31.6 µM [inhibitor, single point]
CCCCOC(=O)c1ccc(NC(=O)COC(=O)c2ccc3ncsc3c2)cc1 | inconclusive: 20 µM [inhibitor, partial curve]

— PubChem BioAssay AID588590 (National Center for Advancing Translational Sciences (NCATS), 2011)
